Measured values published in patent publication US20070048738A1, “Methods and compositions for diagnosis, staging and prognosis of prostate cancer” (Mayo Foundation for Medical Education and Research, priority 2003, published 2007).

Tested on: prostate cancer and adjacent benign tissues
Assay: Gene expression profiling of prostate tissues with oligonucleotide arrays U133A and U133B (Example II, TABLE 2)
Design: species or system human

Substance | Fold Change Gs-Nrml (fold-change in gene expression, Gleason grade 6 vs adjacent benign tissues (second Gs-Nrml column), U133A and U133B probe set average) | Fold Change Gs-Nrml (fold-change in gene expression, Gleason grade 9 vs adjacent benign tissues (first Gs-Nrml column), U133A and U133B probe set average) | Fold Change Met-Nrml (fold-change in gene expression, Metastatic vs adjacent benign tissues, U133A and U133B probe set average) | Fold Change Met-Nrml (mRNA expression of the gene, metastatic prostate cancer relative to adjacent benign tissue, U133A and U133B arrays)
PRIMA1 | 0.8143 | 0.7741 | 0.7443 | 
IGF1 |  |  |  | 0.6048
